According to publication doi:10.1101/2020.02.13.944967:
No constants are given. Whether binding was seen depends on the method and setting. Some binding calls cover weakened binding; strength is not graded here.

The chains behind the UniProt entries cited, without tags or fusion partners.
UniProt G5ECU1: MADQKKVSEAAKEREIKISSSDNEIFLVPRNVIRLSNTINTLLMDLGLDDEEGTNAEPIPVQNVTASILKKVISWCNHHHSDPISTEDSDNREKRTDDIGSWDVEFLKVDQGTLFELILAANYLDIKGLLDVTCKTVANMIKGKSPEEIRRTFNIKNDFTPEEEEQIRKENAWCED
UniProt Q22071: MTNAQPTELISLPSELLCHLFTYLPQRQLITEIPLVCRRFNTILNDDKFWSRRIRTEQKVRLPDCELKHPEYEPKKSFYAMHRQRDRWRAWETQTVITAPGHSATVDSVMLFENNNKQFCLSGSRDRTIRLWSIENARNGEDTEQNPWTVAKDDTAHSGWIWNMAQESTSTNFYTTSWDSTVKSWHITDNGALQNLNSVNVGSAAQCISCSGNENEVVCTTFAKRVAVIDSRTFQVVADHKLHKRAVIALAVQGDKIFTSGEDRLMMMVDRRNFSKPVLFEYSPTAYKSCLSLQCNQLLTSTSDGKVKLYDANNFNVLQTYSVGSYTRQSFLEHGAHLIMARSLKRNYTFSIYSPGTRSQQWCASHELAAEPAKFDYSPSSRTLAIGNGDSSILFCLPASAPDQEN

Legend:
[1] = biological target: Skp homolog SKR-1 (C. elegans) (UniProt G5ECU1); experiment: two-hybrid
DLK-1a (C. elegans) = biological target: T1, DLK-1a (C. elegans) (UniProt O01700); experiment: two-hybrid
T1 sequence: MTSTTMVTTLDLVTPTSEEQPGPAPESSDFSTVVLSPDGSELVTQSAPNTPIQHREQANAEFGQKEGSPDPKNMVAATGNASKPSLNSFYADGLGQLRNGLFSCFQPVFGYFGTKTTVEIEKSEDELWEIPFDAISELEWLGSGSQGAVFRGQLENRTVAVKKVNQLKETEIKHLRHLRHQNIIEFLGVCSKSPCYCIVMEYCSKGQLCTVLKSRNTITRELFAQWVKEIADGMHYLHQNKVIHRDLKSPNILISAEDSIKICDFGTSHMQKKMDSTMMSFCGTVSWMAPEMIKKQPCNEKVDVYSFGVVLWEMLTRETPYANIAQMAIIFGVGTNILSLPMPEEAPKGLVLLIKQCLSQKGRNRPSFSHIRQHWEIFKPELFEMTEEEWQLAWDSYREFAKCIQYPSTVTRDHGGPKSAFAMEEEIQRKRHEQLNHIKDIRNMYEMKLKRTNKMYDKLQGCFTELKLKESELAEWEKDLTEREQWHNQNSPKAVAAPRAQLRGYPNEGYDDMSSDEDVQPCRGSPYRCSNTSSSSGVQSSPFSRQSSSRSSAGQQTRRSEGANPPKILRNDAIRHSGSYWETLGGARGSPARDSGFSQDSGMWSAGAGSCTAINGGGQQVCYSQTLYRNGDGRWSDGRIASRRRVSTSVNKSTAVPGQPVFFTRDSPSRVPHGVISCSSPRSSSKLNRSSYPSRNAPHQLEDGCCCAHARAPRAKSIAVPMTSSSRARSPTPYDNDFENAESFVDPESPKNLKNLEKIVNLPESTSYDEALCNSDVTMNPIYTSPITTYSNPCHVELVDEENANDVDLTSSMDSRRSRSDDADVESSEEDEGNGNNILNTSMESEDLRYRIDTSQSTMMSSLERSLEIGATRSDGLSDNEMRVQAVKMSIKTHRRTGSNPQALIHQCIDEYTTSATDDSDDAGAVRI

Row | Substance | binding [1] | binding (DLK-1a (C. elegans))
1 | F-box and WD40 repeat domain-containing protein MEC-15 (from UniProt Q22071 1-406) | binds | –
2 | HSP-90 (from UniProt Q18688 1-702) | – | binds
